Experimental data from US4990663A, “Process for preparing halogenated aromatic amines” (E. I. Du POnt de Nemours and Company, priority 1989, dated 1991).

Assay: dehalogenation inhibitor evaluation in laboratory batch hydrogenation
Protocol: The autoclave was sealed, the air was displaced with nitrogen and the autoclave was pressure tested. The nitrogen was replaced with hydrogen and the contents of the autoclave were heated to 75° C. The agitation was started and the pressure control regulator on the hydrogen feed was set to a maximum of 500 psig. […] The reduction was terminated. The autoclave was cooled, the hydrogen was displaced with nitrogen and the organic phase was separated.
Hydrogenation temperature was controlled at 110° C. instead of 96° C.

[1] = Example 10, 1.0 weight % inhibitor, otherwise as Example 8
[2] = Example 9, 0.375 weight % inhibitor, 110° C., 15.8 mg platinum

COCCN [2-methoxyethylamine]
reduction time [1]: 148 min
residual nitroaromatic in product amine [1]: 0.02%

NCCO [ethanolamine]
unreduced nitroaromatic (Example 8, 0.5 weight % inhibitor, 96° C., 7.9 mg platinum, terminated at 188 minutes): 8.8%
nitroaromatic in product amine [2]: 0.38%
time at which hydrogen take-up essentially stopped [2]: 100 min
hydrogen take-up / completeness of reduction (batch, 96° C., concentrations near optimum for semicontinuous unit): hydrogen take-up was slow and erratic, and the reduction did not go to completion
